Experiment [1] addresses T1, N-myc downstream-regulated gene 2 (NDRG2) protein, endogenous in SK-BR-3 cells (human (endogenous in SK-BR-3)) (UniProt Q9UN36).
T1 sequence: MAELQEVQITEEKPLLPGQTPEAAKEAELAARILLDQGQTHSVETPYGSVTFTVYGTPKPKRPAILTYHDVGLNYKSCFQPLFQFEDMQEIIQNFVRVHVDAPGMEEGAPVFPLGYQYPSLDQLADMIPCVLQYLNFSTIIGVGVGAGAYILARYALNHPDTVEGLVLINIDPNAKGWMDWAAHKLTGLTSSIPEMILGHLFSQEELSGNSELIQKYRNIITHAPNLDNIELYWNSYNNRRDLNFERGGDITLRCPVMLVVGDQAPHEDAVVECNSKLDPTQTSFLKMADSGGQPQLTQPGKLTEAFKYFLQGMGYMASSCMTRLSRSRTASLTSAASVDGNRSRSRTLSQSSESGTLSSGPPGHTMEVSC
In words: co-IP; endogenous proteins in whole-cell lysates of untransfected SK-BR-3 cells; lysis buffer 150 mM NaCl, 50 mM Tris-HCl pH 7.4, 1% Lubrol, 5 mM EDTA, protease inhibitors; anti-GLUT1 or anti-NDRG2 antibody with protein A sepharose, 8 hours at 4°C; immunoblot.

Protein sequences, listed by entry. Tags and fused reporters are not part of them.
UniProt P11166: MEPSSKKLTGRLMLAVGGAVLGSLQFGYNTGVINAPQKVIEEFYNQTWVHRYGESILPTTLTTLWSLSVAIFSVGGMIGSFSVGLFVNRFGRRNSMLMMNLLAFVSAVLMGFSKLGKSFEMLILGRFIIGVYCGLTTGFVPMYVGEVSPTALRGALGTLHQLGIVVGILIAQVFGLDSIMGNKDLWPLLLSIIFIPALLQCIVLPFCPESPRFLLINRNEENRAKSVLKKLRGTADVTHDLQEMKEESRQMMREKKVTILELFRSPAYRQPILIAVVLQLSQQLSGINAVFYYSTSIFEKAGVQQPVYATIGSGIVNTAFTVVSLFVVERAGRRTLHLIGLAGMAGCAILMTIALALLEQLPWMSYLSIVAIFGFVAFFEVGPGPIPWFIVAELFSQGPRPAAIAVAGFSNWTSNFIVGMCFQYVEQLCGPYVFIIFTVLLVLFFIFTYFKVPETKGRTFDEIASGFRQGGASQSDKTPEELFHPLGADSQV

For experiment [2], the target named is T2, flag-NDRG2 (from pCMV-flag-NDRG2) (human) (UniProt Q9UN36).
T2 sequence: T1 sequence
Description: co-IP; HEK293 cells cotransfected with pCMV-flag-NDRG2 and pCMV-eGFP-GLUT1; lysis buffer 150 mM NaCl, 50 mM Tris-HCl pH 7.4, 1% Lubrol, 5 mM EDTA, protease inhibitors; antibody with protein A or G sepharose, 8 hours at 4°C; immunoblot. (In general: In western blotting, separated proteins are transferred to a membrane and probed.)

Results are given in words; binding and its absence hold for the method and conditions named. Binding seen in cells or lysates may run through a third protein. Some results given as binding are weak or reduced against the parent protein; the word gives no strength. Tags and fused reporters may be left off the sequences shown.

Turning to “glucose transporter 1 (GLUT1), endogenous in SK-BR-3 cells (from UniProt P11166 1-492)”, the binding entry in experiment [1] was “binds”.
As for “eGFP-GLUT1 (from pCMV-eGFP-GLUT1) (from UniProt P11166 1-492)”, the binding result in experiment [2] is recorded as “binds”.

The values above are taken from publication PMC4053222.
